Survivor count and T/C data for 25 compounds are collected here from PubChem BioAssay AID256 (DTP/NCI, 2004).

SMILES strings stand for the structures. The list does not hold the whole screen: it gathers tests that were run many times, whatever their T/C, doses with no T/C, and many T/C values between a quarter and a half above the control. Further doses and runs are listed elsewhere. T/C gives the treated animals as a percentage of the vehicle group. Some doses have a count of surviving animals in place of a T/C: the source holds a T/C of zero for them, seemingly a mark for toxic or unscored doses. Some survivor counts are full or nearly so, which does not show that the dose was tolerated: the source hardly ever lists a survival T/C far under the control, and the zero likely stands for such cases as well. Survivors were counted at the toxicity check, usually on the fifth day, unless a day is given; later deaths do not show. Schedules are NCI's codes, read here as Q, the interval in days (D) or hours (H), X, the number of doses. Some doses were run more than once; the results are listed from low to high. For survival time, this PubChem deposit counts one and a half times the control or more as active, and values a quarter to a half above the control carry no call in these data; other NCI protocols may use other cut-offs.

The subject of the experiment is CD2F1 mice, L1210 leukemia ip, survival T/C. In words: NCI In Vivo Anticancer Drug Screen. Data for tumor model L1210 Leukemia (intraperitoneal) in CD2F1 (CDF1) mice. Conditions: higher T/C = longer survival. Summed up: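 Mice carrying a transplanted tumor received test compound or vehicle alone. The value is the measurement in the treated group divided by that in the vehicle-treated control group.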

The mark [1] stands for this setting: T/C endpoint: mean survival time, dose: 400.0 mg/kg/injection, schedule: Q01DX009 (ip), vehicle: saline with Tween-80.
[2] abbreviates: T/C endpoint: mean survival time, dose: 200.0 mg/kg/injection, schedule: Q04DX003 (ip), vehicle: saline with Tween-80.
[3] abbreviates: T/C endpoint: mean survival time, dose: 100.0 mg/kg/injection, schedule: Q01DX005 (ip), vehicle: other.
The mark [4] stands for this setting: T/C endpoint: mean survival time, dose: 200.0 mg/kg/injection, schedule: Q01DX005 (ip), vehicle: other.
The mark [5] stands for this setting: T/C endpoint: mean survival time, dose: 400.0 mg/kg/injection, schedule: Q04DX003 (ip), vehicle: saline with Tween-80.

Turning to `CCCCCCCCCCCCCCCCCCSc1ccc(Br)cc1`, the survivor count (T/C endpoint: mean survival time, dose: 200.0 mg/kg/injection, schedule: Q01DX001 (ip), vehicle: saline with Tween-80) was 6 of 6.
Take `Cc1ccc([Si](C)Cl)cc1`: under setting [1], the survivor count is 1 of 6.
Turning to `C=C1C(=O)C23[C@H](O)C1CC[C@H]2[C@]12COC3(O)[C@@H](O)[C@@H]1C(C)(C)CC[C@@H]2O`, the survivor count reads like this: (T/C endpoint: mean survival time, dose: 9.0 mg/kg/injection, schedule: Q01DX009 (ip), vehicle: Klucel (hydroxypropylcellulose) (HPC)) 2 of 6; (T/C endpoint: mean survival time, dose: 36.0 mg/kg/injection, schedule: Q01DX009 (ip), vehicle: Klucel (hydroxypropylcellulose) (HPC)) 2 of 6; (T/C endpoint: mean survival time, dose: 50.0 mg/kg/injection, schedule: Q01DX009 (ip), vehicle: saline with Tween-80) 1 of 6 and 2 of 6.
For `COC1=CC23CCCN2CCc2cc4c(cc2C3C1O)OCO4` (centres undefined), the survivor count (T/C endpoint: mean survival time, dose: 400.0 mg/kg/injection, schedule: Q01DX009 (ip), vehicle: water) is on record as 0 of 6.
For the compound `CCCCCCNC(=O)Nc1cccc(Cl)c1C`, under setting [2], the survivor count is given as 6 of 6.
Turning to `NC(=O)c1ncn(C2CC3[O][Sn]([c]4ccccc4)([c]4ccccc4)[O]CC3O2)n1` (centres undefined), the survivor count (T/C endpoint: mean survival time, dose: 50.0 mg/kg/injection, schedule: Q01DX005 (ip), vehicle: distilled water + Tween-80) is listed as 6 of 6.
On to `C[CH2][Sn]1([CH2]C)[O]C2C(CO)OC(n3ccc(N)nc3=O)C2[O]1` (centres undefined), for which the survivor count reads like this: (T/C endpoint: mean survival time, dose: 25.0 mg/kg/injection, schedule: Q01DX005 (ip), vehicle: other) 1 of 6; (T/C endpoint: mean survival time, dose: 25.0 mg/kg/injection, schedule: Q01DX005 (ip), vehicle: water) 0 of 6; (T/C endpoint: mean survival time, dose: 50.0 mg/kg/injection, schedule: Q01DX005 (ip), vehicle: other) 0 of 6; under setting [3], 0 of 6; under setting [4], 0 of 6.
On to `COC(=O)c1ccccc1NC1=NCCO1`, for which the survivor count (T/C endpoint: mean survival time, dose: 100.0 mg/kg/injection, schedule: Q04DX003 (ip), vehicle: Klucel (hydroxypropylcellulose) (HPC)) is listed as 6 of 6.
Turning to `CCCCCOC(=O)CC(N)C(=O)OCCCCC` (centres undefined), the survivor count under setting [5] is recorded as 3 of 6.
Take `CC(C)(C)N1CC(C(O)(c2ccccc2)c2ccccc2)C1`: the survivor count (T/C endpoint: mean survival time, dose: 100.0 mg/kg/injection, schedule: Q01DX001 (ip), vehicle: saline with Tween-80) is 0 of 6.
In the case of `CCOC(=O)c1cnc(NN)nc1Nc1cc(Cl)cc(Cl)c1`, the survivor count (T/C endpoint: mean survival time, dose: 50.0 mg/kg/injection, schedule: Q04DX003 (ip), vehicle: saline with Tween-80) is given as 0 of 6.
For the compound `CCCCNC(=O)NCCc1ccc(OC)c(OC)c1`, the survivor count under setting [1] is 4 of 6.
For the compound `CCCCCCCCCCCCCCCCNC(=O)C[N+](C)(C)Cc1ccccc1`, the survivor count runs as follows: (T/C endpoint: mean survival time, dose: 20.0 mg/kg/injection, schedule: Q04DX003 (ip), vehicle: saline with Tween-80) 5 of 6; (T/C endpoint: mean survival time, dose: 100.0 mg/kg/injection, schedule: Q04DX003 (ip), vehicle: saline with Tween-80) 0 of 6; under setting [2], 0 of 6; under setting [5], 0 of 6.
As for `Cc1c(O)c2c(c(O)c1Cc1cccc(C#N)c1)C(=O)c1ccccc1C2=O`, under “T/C endpoint: mean survival time, dose: 100.0 mg/kg/injection, schedule: Q01DX009 (ip), vehicle: Klucel (hydroxypropylcellulose) (HPC)”, the survivor count is 6 of 6.
For the compound `C#CC(OC(=O)NC1CCCCC1)(c1ccccc1)c1ccccc1`, the T/C was 127 % of control (T/C endpoint: mean survival time, dose: 25.0 mg/kg/injection, schedule: Q01DX009 (ip), vehicle: other) and 129 % of control (T/C endpoint: mean survival time, dose: 50.0 mg/kg/injection, schedule: Q01DX009 (ip), vehicle: other). Further, the survivor count is, setting by setting: (T/C endpoint: mean survival time, dose: 100.0 mg/kg/injection, schedule: Q01DX009 (ip), vehicle: other) 6 of 6; (T/C endpoint: mean survival time, dose: 200.0 mg/kg/injection, schedule: Q01DX009 (ip), vehicle: other) 5 of 6.
Take `CC[C@@]1(OC(=O)CN2CCCC2)C(=O)OCc2c1cc1n(c2=O)Cc2cc3ccccc3nc2-1`: the T/C reads like this: (T/C endpoint: median survival time, dose: 12.5 mg/kg/injection, schedule: Q04DX002 (ip), vehicle: water) 128 % of control; (T/C endpoint: median survival time, dose: 25.0 mg/kg/injection, schedule: Q04DX002 (ip), vehicle: water) 127 and 137 % of control; (T/C endpoint: median survival time, dose: 100.0 mg/kg/injection, schedule: Q04DX002 (ip), vehicle: water) 146 % of control.
For `Cc1ncc(CO)c(C2NOCc3nscc32)c1O` (centres undefined), the survivor count (T/C endpoint: mean survival time, dose: 42.0 mg/kg/injection, schedule: Q01DX009 (ip), vehicle: Klucel (hydroxypropylcellulose) (HPC)) is given as 3 of 6.
For the compound `c1ccc(-c2nn(-c3ccccc3)[n+](-c3ccccc3)n2)cc1`, the survivor count (T/C endpoint: mean survival time, dose: 10.0 mg/kg/injection, schedule: Q04DX003 (ip), vehicle: saline) was 2 of 6 and the survivor count (T/C endpoint: mean survival time, dose: 20.0 mg/kg/injection, schedule: Q04DX003 (ip), vehicle: saline) is recorded as 0 of 6.
On to `Cc1cc(C)cc(C(C)C)c1`, for which, under setting [1], the survivor count was 4 of 6.
With `Nc1nc2ncn(O)c2c(=O)[nH]1`, the T/C is, setting by setting: (T/C endpoint: median survival time, dose: 3.12 mg/kg/injection, schedule: Q01DX009 (ip), vehicle: water) 138 and 144 % of control; (T/C endpoint: median survival time, dose: 25.0 mg/kg/injection, schedule: Q01DX009 (ip), vehicle: water) 134 % of control. For the same compound, the survivor count was 1 of 6 (T/C endpoint: median survival time, dose: 50.0 mg/kg/injection, schedule: Q01DX009 (ip), vehicle: other); 5 of 6 and 6 of 6 (T/C endpoint: median survival time, dose: 50.0 mg/kg/injection, schedule: Q01DX009 (ip), vehicle: water).
Take `CN(C)N=C1CCCCC1`: the survivor count (T/C endpoint: mean survival time, dose: 300.0 mg/kg/injection, schedule: Q01DX001 (ip), vehicle: saline) is reported as 1 of 6.
`O=Cc1cc(Cl)c(O)c(Cl)c1`: the survivor count (T/C endpoint: mean survival time, dose: 400.0 mg/kg/injection, schedule: Q04DX003 (ip), vehicle: Klucel (hydroxypropylcellulose) (HPC)) is reported as 0 of 3.
In the case of `[CH3][Sn]1([CH3])[O]C2C(CO)OC(n3ccc(N)nc3=O)C2[O]1` (centres undefined), the survivor count runs as follows: under setting [3], 0 of 6; under setting [4], 0 of 6.
For `C[C@@]1(CO)[C@H](O)CC[C@@]2(C)[C@H]1CC[C@H]1C[C@@H]3C[C@@]12CC[C@@]3(O)COC(=O)CN`, the T/C was 126 % of control (T/C endpoint: median survival time, dose: 40.0 mg/kg/injection, schedule: Q03HX027 (ip), vehicle: saline + alcohol); 139 % of control (T/C endpoint: median survival time, dose: 60.0 mg/kg/injection, schedule: Q01DX009 (ip), vehicle: saline); 126 % of control (T/C endpoint: median survival time, dose: 100.0 mg/kg/injection, schedule: Q01DX005 (ip), vehicle: saline); 127 % of control (T/C endpoint: median survival time, dose: 100.0 mg/kg/injection, schedule: Q01DX009 (ip), vehicle: saline + alcohol); 140 % of control (T/C endpoint: median survival time, dose: 100.0 mg/kg/injection, schedule: Q01DX009 (ip), vehicle: saline); 134 % of control (T/C endpoint: median survival time, dose: 166.6 mg/kg/injection, schedule: Q01DX005 (ip), vehicle: saline). For the same compound, the survivor count is 10 of 10 (T/C endpoint: median survival time, dose: 80.0 mg/kg/injection, schedule: Q03HX027 (ip), vehicle: saline + alcohol); 3 of 6 (T/C endpoint: median survival time, dose: 166.67 mg/kg/injection, schedule: Q01DX009 (ip), vehicle: saline); 2 of 6 (T/C endpoint: median survival time, dose: 200.0 mg/kg/injection, schedule: Q01DX005 (ip), vehicle: saline); 0 of 6 (T/C endpoint: median survival time, dose: 277.7 mg/kg/injection, schedule: Q01DX005 (ip), vehicle: saline); 0 of 6 (T/C endpoint: median survival time, dose: 277.7 mg/kg/injection, schedule: Q01DX009 (ip), vehicle: saline); 1 of 6 (T/C endpoint: median survival time, dose: 277.78 mg/kg/injection, schedule: Q01DX009 (ip), vehicle: saline). For the same compound, the survivor count by setting is: (T/C endpoint: median survival time, dose: 400.0 mg/kg/injection, schedule: Q01DX005 (ip), vehicle: saline) 0 of 6; (T/C endpoint: median survival time, dose: 462.97 mg/kg/injection, schedule: Q01DX009 (ip), vehicle: saline) 0 of 6.
As to `O=C(O)CC(c1ccccc1)C(CC(=O)O)c1ccccc1.[NH-]C1CCCCC1[NH-].[Pt+2]` (centres undefined), the T/C by setting is: (T/C endpoint: median survival time, dose: 100.0 mg/kg/injection, schedule: Q04DX003 (ip), vehicle: saline with Tween-80) 133 % of control; (T/C endpoint: median survival time, dose: 200.0 mg/kg/injection, schedule: Q04DX003 (ip), vehicle: saline) 139 % of control. Further, under “T/C endpoint: median survival time, dose: 200.0 mg/kg/injection, schedule: Q04DX003 (ip), vehicle: saline with Tween-80”, the survivor count is 3 of 6.
